# Assay results published in patent US10520509B2 (Washington State University, priority 2016, dated 2019).
# Test: Fluorescence sensitivity of DDP probe to H2S (Na2S)
# Details: λex=360 nm
smiles,measurement,value
[N-]=[N+]=Nc1ccc2c(CC(=O)N3CCN(c4ccc5c(c4)Oc4cc(OC(=O)c6ccccc6SC(=O)c6ccccc6)ccc4C54OC(=O)c5ccccc54)CC3)cc(=O)oc2c1 (centres unmarked) [DDP-1],"detection limit (S/N=3) for H2S, emission at 452 nm",100 nm
same,"detection limit (S/N=3) for H2S, emission at 542 nm",150 nm
